Results published in patent US12569508B2, “Antimicrobial compositions and methods of use” (priority 2020, dated 2026).

System: PAO1 GFP biofilm
Assay: Confocal microscopy of antibiotic penetration into flow cell biofilm
Assay type: cell-based, P. aeruginosa
Settings: for area under the curve of fluorescent antibiotic (intensity versus penetration): 15 μg/mL; for biofilm penetration: three-day flow cell biofilm

Row | SMILES | area under the curve of fluorescent antibiotic (intensity versus penetration) (0.5 h after injection) [AU/μm^2] | area under the curve of fluorescent antibiotic (intensity versus penetration) (1 h after injection) [AU/μm^2] | area under the curve of fluorescent antibiotic (intensity versus penetration) (2 h after injection) [AU/μm^2] | biofilm penetration
1 | O=C(O)c1cn(C2CC2)c2cc(N3CCNCC3)c(F)cc2c1=O [Cy5 ciprofloxacin] | 746 | 805 | 1403 | penetrated biofilm
2 | NC[C@H]1O[C@H](O[C@H]2[C@H](O)[C@@H](O[C@H]3O[C@H](CO)[C@@H](O)[C@H](N)[C@H]3O)[C@H](N)C[C@@H]2N)[C@H](N)C[C@@H]1O [Cy5 TOB] | 274 | 459 | 464 | did not penetrate the biofilm
